PubChem BioAssay AID602196, INSERM | 2012

Aim: 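Knock-downs that protect lung cancer cells from cisplatin or sensitise them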
Cells: human A549 lung cancer cells
Reagent: siRNA pair against human genes
Timing: 48 h transfection before cisplatin; time from cisplatin to read-out not stated
Treatment: cisplatin at a dose killing half of control-siRNA cells; exact dose and duration not given
Measurement: 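Cisplatin cell death as a shift from the 50% death seen with control siRNA; siRNAs toxic or growth-blocking alone scored 0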
Direction: two-siRNA summed score (-2 to +2): higher = both siRNAs protect from cisplatin killing; -2 means both sensitise; mean protection from cisplatin (shift in death) and protection from cisplatin (shift in death), siRNA C and protection from cisplatin (shift in death), siRNA D: higher = protection from cisplatin killing
Active means: 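siRNAs harmful alone (LDH or WST-1) get 0; others get +1 for less and -1 for more cisplatin killing; genes are active when the two siRNAs give the same sign, summing to ±2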
Meaning of the calls: active = both siRNAs shift cisplatin killing the same way; inactive = no consistent shift, or siRNA harmful alone
In all, the deposit lists about 23,000 reagents; this is a part drawn at random. Over the whole deposit, 455 (2%) were called active. 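Active includes both protection and sensitisation; some change values fall well beyond the stated -50 to +50 range.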 A number with no mark means an inactive call. Not given: the amount of reagent.

| gene | two-siRNA summed score (-2 to +2) | mean protection from cisplatin (shift in death) (%) | protection from cisplatin (shift in death), siRNA C (%) | protection from cisplatin (shift in death), siRNA D (%) |
| --- | --- | --- | --- | --- |
| ETNK1 | 1 | 15.1 | 28.2 | 2.1 |
| EIF2B3 | 0 | 0.7 | -14.5 | 16 |
| APBA2 | 1 | 3.1 | -8.4 | 14.7 |
| PPARA | 0 | -17.9 | -21.5 | -14.2 |
| SH2B3 | 0 | 0.1 | -4 | 4.1 |
| PNMA3 | 1 | 6.5 | -5.2 | 18.2 |
| LOC391030 | 0 | 10.9 | 26.7 | -4.9 |
| VTA1 | 0 | -5.4 | -11.6 | 0.7 |
| STUM | 1 | 12 | 28.6 | -4.5 |
| FBXO45 | 0 | 14.1 | 31.7 | -3.5 |
| COMMD7 | 0 | -5.7 | -3.4 | -8 |
| MRPL20-AS1 | 0 | 0.7 | -6.2 | 7.5 |
| FLJ16287 | 0 | 17.1 | 18.8 | 15.3 |
| PWP2 | 0 | 11.5 | 16.8 | 6.1 |
| TNFSF8 | 1 | 22 | 19 | 25 |
| ACAT2 | -1 | -3.4 | -8.5 | 1.7 |
| LOC401616 | 0 | 1.6 | -7.3 | 10.6 |
| LOC389250 | 0 | 10.9 | 12.5 | 9.2 |
| KBTBD4 | -1 | -12.7 | -20.9 | -4.5 |
| LOC643406 | 0 | 8.9 | 4.1 | 13.8 |
| SLC4A1AP | 0 | 7.3 | 7.5 | 7 |
| MED7 | 0 | 5.4 | 4.8 | 6.1 |
| XKRX | 1 | 7.1 | -0.8 | 15 |

No new results follow: 2 of the entries above.
| gene | two-siRNA summed score (-2 to +2) | mean protection from cisplatin (shift in death) (%) | protection from cisplatin (shift in death), siRNA C (%) | protection from cisplatin (shift in death), siRNA D (%) |
| --- | --- | --- | --- | --- |
| LOC401616 | 0 | 1.6 | -7.3 | 10.6 |
| LOC389250 | 0 | 10.9 | 12.5 | 9.2 |
